Experimental data: PubChem BioAssay AID1224828 (NIAID, 2016)
Test: 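Knock-downs that increase or decrease LPS-induced p65 nuclear translocation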 (primary screen). Cell system: mouse RAW264.7 G9 macrophage reporter cells (GFP-p65, Tnf promoter-mCherry). Reagent: siRNA pool against mouse genes, 100 nM. Duration: 2 days siRNA transfection, then 40 min LPS before fixation. Treatment: LPS (Salmonella minnesota R595) at 10 ng/ml. Read-out: 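Imaged p65 nuclear translocation ratio, normalised to the plate median, converted to robust z-scores and averaged across two replicates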. Direction: p65 translocation robust z-score: higher = more nuclear NF-kappaB p65 after LPS than the plate median; nuclear/cytoplasmic p65 ratio: higher = more nuclear NF-kappaB p65. Call rule: 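Active if robust z is above 3.3 (negative regulators) or below -1.56, the Tlr4 control median (positive regulators); activity score 50 or more; control wells not called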. Calls: active = hit (p65 shift raised or lowered); inactive = no clear change.
Here is one part, drawn at random, of about 17,000 reagents. 762 of all reagents (4.5%) count as active. 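Active calls include both raised and lowered p65 entry, mostly lowered; wells with fewer than 50 cells lack a z-score.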 The raw values are shown without normalisation.

Gbp4 | p65 translocation robust z-score = 1.03; nuclear/cytoplasmic p65 ratio, rep 1 = 1.93; nuclear/cytoplasmic p65 ratio, rep 2 = 1.76; low cell count flag = enough cells to score; activity call = inactive
Tfb2m | p65 translocation robust z-score = -0.29; nuclear/cytoplasmic p65 ratio, rep 1 = 1.47; nuclear/cytoplasmic p65 ratio, rep 2 = 1.48; low cell count flag = enough cells to score; activity call = inactive
Nfe2l3 | p65 translocation robust z-score = -0.38; nuclear/cytoplasmic p65 ratio, rep 1 = 1.4; nuclear/cytoplasmic p65 ratio, rep 2 = 1.36; low cell count flag = enough cells to score; activity call = inactive
Hoxb8 | p65 translocation robust z-score = 1.06; nuclear/cytoplasmic p65 ratio, rep 1 = 1.83; nuclear/cytoplasmic p65 ratio, rep 2 = 1.67; low cell count flag = enough cells to score; activity call = inactive
Cflar | nuclear/cytoplasmic p65 ratio, rep 1 = 1.1; nuclear/cytoplasmic p65 ratio, rep 2 = 1.34; low cell count flag = fewer than 50 cells per well; well left out of scoring; activity call = inactive
Hs2st1 | p65 translocation robust z-score = 0.31; nuclear/cytoplasmic p65 ratio, rep 1 = 1.55; nuclear/cytoplasmic p65 ratio, rep 2 = 1.6; low cell count flag = enough cells to score; activity call = inactive
Tbx19 | p65 translocation robust z-score = 0.23; nuclear/cytoplasmic p65 ratio, rep 1 = 1.58; nuclear/cytoplasmic p65 ratio, rep 2 = 1.52; low cell count flag = enough cells to score; activity call = inactive
Homer3 | p65 translocation robust z-score = -1.18; nuclear/cytoplasmic p65 ratio, rep 1 = 1.49; nuclear/cytoplasmic p65 ratio, rep 2 = 1.35; low cell count flag = enough cells to score; activity call = inactive
Sack1g | nuclear/cytoplasmic p65 ratio, rep 1 = 1.77; nuclear/cytoplasmic p65 ratio, rep 2 = 1.34; low cell count flag = fewer than 50 cells per well; well left out of scoring; activity call = inactive
Itpr3 | p65 translocation robust z-score = 0.1; nuclear/cytoplasmic p65 ratio, rep 1 = 1.62; nuclear/cytoplasmic p65 ratio, rep 2 = 1.4; low cell count flag = enough cells to score; activity call = inactive
Kif13b | p65 translocation robust z-score = 0.9; nuclear/cytoplasmic p65 ratio, rep 1 = 1.84; nuclear/cytoplasmic p65 ratio, rep 2 = 1.48; low cell count flag = enough cells to score; activity call = inactive
Pagr1a | nuclear/cytoplasmic p65 ratio, rep 1 = 1.37; nuclear/cytoplasmic p65 ratio, rep 2 = 1.2; low cell count flag = fewer than 50 cells per well; well left out of scoring; activity call = inactive
Rmnd5a | p65 translocation robust z-score = 0.07; nuclear/cytoplasmic p65 ratio, rep 1 = 1.58; nuclear/cytoplasmic p65 ratio, rep 2 = 1.43; low cell count flag = enough cells to score; activity call = inactive
Mcts2 | nuclear/cytoplasmic p65 ratio, rep 1 = 1.35; nuclear/cytoplasmic p65 ratio, rep 2 = 1.27; low cell count flag = fewer than 50 cells per well; well left out of scoring; activity call = inactive
